Results reported in PubChem BioAssay AID493014 (National Center for Advancing Translational Sciences (NCATS), 2011).
The campaign covered roughly 340,000 compounds. About 170 (0.05%) were called active. The shares of active, inactive and inconclusive entries below differ from those in the screen. Calls come from the whole dose curve; as a rule, active = well fitted inhibition curve with a large enough effect in the signal ratio, with a control signal flat (not every such curve was filed as active); inconclusive = small, poorly fitted or top-dose-only effect, or effect the other way, or a change in a side signal; inactive = flat fitted curve, though single readings scatter; the % refers to the signal ratio. Where the call is inconclusive, the potency comes from a doubtful curve fit.

Experiment: qHTS Assay to Find Inhibitors of Chronic Active B-Cell Receptor Signaling;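 for activity change, negative = inhibition: plate controls were basal doxycycline-induced cells for no effect and cells given 10 µM MG132 for full effect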
Conditions: ABC-DLBCL IkBa-CBG/CBR reporter, luminescence ratio (green luciferase fused to IkBa over red control in TMD8 lymphoma cells), 4 h; activity change, negative = inhibition: at 46.1 µM (top of the series)
Summary of the method: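 Concentration-response series (up to 46 uM) were applied to TMD8 dual-reporter cells for 4 h at 37C with doxycycline. Green/red ratio, after filter-overlap correction, defined %Activity; red signal alone was normalised to basal cells and zero luminescence.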
Potency is the fitted concentration of half-maximal effect.

SMILES	Potency	activity change, negative = inhibition
O=C(O)CCCCCCCCCC(=O)c1cccs1	inconclusive: 14.1 µM [falling, partial curve]	–
Cc1ccc(NC2=NC3(CCCCC3)N=C(N)N2)c(C)c1	–	inconclusive: -22.8%
Cc1ccc(NC(=O)C(C)OC(=O)/C=C/c2ccccc2)cc1S(=O)(=O)N1CCOCC1 (stereo not drawn)	inconclusive: 10.3 µM [falling, partial curve, poor fit]	–
O=C(CSc1nnc([C@@H]2CCCN2)o1)c1ccc(Cl)cc1	–	inconclusive: 0.675%
Cc1ccc(-n2c(SCC(=O)NC3CCCCC3)nc3c(c2=O)SCC3)cc1	–	inconclusive: 4.46%
CCOC(=O)CSc1nc2sc(C)c(C)c2c(=O)n1C	–	inactive
Cc1ccn2c(Nc3ccc4c(c3)OCO4)c(-c3ccccn3)nc2c1	–	inactive
COc1ccc2[nH]c(-c3ccc(C)cc3)cc(=O)c2c1	–	inconclusive: -8.8%
Oc1ccc2ccccc2c1/C=N/c1nc2c(s1)CCCC2	–	inactive
O=C1NN(c2ccc(Br)cc2)C(=O)/C1=C\c1ccc(O)cc1O	inconclusive: 0.355 µM [falling, full curve, poor fit]	–
CN(CC(=O)Nc1ccc(F)cc1Cl)Cc1cccs1	inconclusive: 14.1 µM [rising, partial curve, poor fit]	–
CCOc1cccc(Nc2ccc([N+](=O)[O-])cn2)c1	–	inconclusive: 2.8%
Cc1ccc(SCc2ccc(C(=O)Nc3cccc([N+](=O)[O-])c3)cc2)cc1	–	inactive
O=C(NC1CCCCCC1)C1Cc2ccccc2CN1C(=O)c1ccco1 (stereo not drawn)	inconclusive: 20 µM [falling, partial curve]	–
CN(CC(=O)NC(=O)NC1CCCCC1)CC(=O)Nc1ccc(Cl)cc1	–	inconclusive: -2.17%
Oc1ccc2oc3c(c2c1C=NCc1ccncc1)CCCC3	inconclusive: 17.8 µM [rising, partial curve, poor fit]	–
COc1cc(CCC(=O)N2CCN(c3ccc([N+](=O)[O-])cc3)CC2)cc(OC)c1OC	–	inconclusive: -24.2%
O=C(NCCc1ccc(O)c(O)c1)C1COc2ccccc2O1 (stereo not drawn)	inconclusive: 11.2 µM [falling, partial curve, poor fit]	–
Cc1cc(C)c2sc(N3CCN(C(=O)C4CC4)CC3)nc2c1	–	inactive
NC(=O)C1=C[C@H](C2CCCCC2)C[C@H](OCc2ccc(CO)cc2)O1	–	inconclusive: 2.44%
CCOC(=O)N1CCN(Cc2nnc(-c3cccc(Br)c3)o2)CC1	–	inconclusive: 6.23%
Cc1ccc(C)c(CN2CCCNC2=O)c1	–	inconclusive: 14.4%
COc1ccc(OC)c(NC(=O)CSc2nnc(CCCO)n2-c2ccccc2)c1	–	inconclusive: -0.488%
CCCCN(CC)CCNC(=O)c1ccc2c(Cl)c3c(nc2c1)CCC3	–	inconclusive: -13%
O=C(CSc1ccc2nnc(-c3ccccn3)n2n1)Nc1nccs1	–	inconclusive: -0.95%
Cc1ccc(-n2c3c(cc(C(=O)NCc4ccco4)c2=O)C(=O)CCC3)cc1	–	inconclusive: -2.96%
Cc1cc(C)cc(C(=O)OCC(=O)N2CCCCCC2)c1	–	inconclusive: -18.5%

SMILES	Potency	activity change, negative = inhibition
Cc1cc(C)n2nc(C(=O)Nc3ccc4c(c3)OCO4)nc2n1	–	inconclusive: -18.8%
O=C(Nc1ccc(F)cc1F)c1cccc(C(=O)Nc2ccc(F)cc2F)n1	–	inactive
Cc1ccc(C(=O)Nc2ccccc2C(=O)O)cc1NC(=O)COc1c(C)cccc1C	inconclusive: 2.82 µM [falling, full curve, poor fit]	–
O=S(=O)(NCc1ccccc1F)NCc1ccccc1F	–	inconclusive: 7.61%
O=C1CC(N2CCN(c3ccc(Cl)cc3)CC2)C(=O)N1c1ccc(F)cc1 (stereo not drawn)	–	inactive
Fc1cccc(Cl)c1Cc1noc(/C=C/c2ccccc2)n1	–	inconclusive: 13.9%
CCOC(=O)c1ccccc1NS(=O)(=O)c1ccc(S(=O)(=O)N2CCCC2)cc1	inconclusive: 32.6 µM [falling, single point]	–
CCCn1nnc2sc3c(c2c1=O)CCC(C)C3 (stereo not drawn)	–	inconclusive: -0.889%
Cc1ccc(C)c(NC(=O)c2cc(-c3cc(C)c(C)cc3O)n[nH]2)c1	inconclusive: 3.16 µM [falling, full curve]	–
COC(=O)Cn1c(=O)c2c(nc3n2CCCN3CCc2ccccc2)n(C)c1=O	–	inconclusive: 10.7%
Cc1ccccc1-c1ocnc1C(=O)Nc1ccccc1NC(=O)c1ccccn1	inconclusive: 25.1 µM [falling, single point]	–
COc1ccccc1OCCCCn1ncc2ccc(OC)c(OC)c2c1=O	–	inconclusive: -0.601%
CC(=C/c1ccccc1)/C=N/n1cnnc1	–	inconclusive: 1.58%
Cc1ccc2oc(-c3ccc(C)c(NC(=O)Cc4cccs4)c3)nc2c1	–	inactive
CN(C)C(=O)CCc1ccc2c3c([nH]c2c1)[C@]1(C)[C@@H](C(=O)N2CCCCC2)C[C@H](CC(=O)NCCCn2ccnc2)C(=O)N1CC3	–	inconclusive: -2.28%
O=C(CCC(=O)c1ccc(F)cc1)Nc1ccccc1Cl	inconclusive: 16.4 µM [falling, partial curve]	–
Cc1noc(C)c1C(=O)Nc1nc(-c2cc(F)ccc2F)cs1	–	inactive
COc1ccccc1CNS(=O)(=O)c1ccc(-n2cccn2)cc1	–	inactive
O=C(Nc1ccc(N2CCOCC2)c(Cl)c1)c1cccnc1Cl	inconclusive: 7.31 µM [falling, partial curve]	–
Cc1ccc(-n2cnc3cc(C(=O)NCc4ccccc4Cl)ccc32)c(C)c1	–	inconclusive: -14.7%
COc1ccc(N2C(=S)N=C(Nc3ccccc3)C23CCCCC3)cc1	–	inactive
CC(Sc1ccc2nnc(-c3ccc(F)cc3)n2n1)C(=O)O (stereo not drawn)	–	inactive
C=CCOc1ccc(C2NC(=O)NC(C)=C2C(=O)OC)cc1 (stereo not drawn)	–	inconclusive: 5.96%
CCOC(=O)c1c(NC(=O)CN2C(=O)NC3(CCCCC3C)C2=O)sc(C(=O)N(C)C)c1C (stereo not drawn)	–	inconclusive: -11.6%
O=C(/C=C/c1ccccc1[N+](=O)[O-])Nc1ccccc1	–	inconclusive: -20.3%
CCC(=O)N/C=C/n1cnc2cc(C(F)(F)F)ccc21	–	inconclusive: 1.49%

Record cards, from the list above:
`CN(C)C(=O)CCc1ccc2c3c([nH]c2c1)[C@]1(C)[C@@H](C(=O)N2CCCCC2)C[C@H](CC(=O)NCCCn2ccnc2)C(=O)N1CC3` is entered as activity change, negative = inhibition: inconclusive: -2.28%
`C=CCOc1ccc(C2NC(=O)NC(C)=C2C(=O)OC)cc1` (stereo not drawn) is entered as activity change, negative = inhibition: inconclusive: 5.96%
`CCCn1nnc2sc3c(c2c1=O)CCC(C)C3` (stereo not drawn) is entered as activity change, negative = inhibition: inconclusive: -0.889%
`O=C(/C=C/c1ccccc1[N+](=O)[O-])Nc1ccccc1` is entered as activity change, negative = inhibition: inconclusive: -20.3%
